Measurements taken from paper PMC12990707, “Multiple novel hepatocellular carcinoma signature genes are commonly controlled by the master pluripotency factor OCT4”.
Construct, isoform or probe ends are uncertain for at least one entry. Where cells or extracts were used, other partners may take part.

By UniProt entry, the sequences of proteins in these tests, tags left out. Where a name states a change or a piece, a line headed by the entry shows the natural chain unless it says otherwise.
UniProt Q01860: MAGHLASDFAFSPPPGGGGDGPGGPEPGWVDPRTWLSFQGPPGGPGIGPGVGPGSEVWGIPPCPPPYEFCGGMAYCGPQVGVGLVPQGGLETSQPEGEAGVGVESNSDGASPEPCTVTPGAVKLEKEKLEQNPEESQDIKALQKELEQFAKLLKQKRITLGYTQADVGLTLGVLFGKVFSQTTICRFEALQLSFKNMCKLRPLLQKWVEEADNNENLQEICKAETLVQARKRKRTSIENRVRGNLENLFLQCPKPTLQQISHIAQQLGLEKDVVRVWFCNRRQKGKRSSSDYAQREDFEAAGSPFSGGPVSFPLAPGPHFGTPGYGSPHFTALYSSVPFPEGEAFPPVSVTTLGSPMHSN

Biological target: OCT4 (endogenous) (UniProt Q01860)
Experiment: EMSA
Conditions: Huh7 NTC vs OCT4-KO nuclear extract, OCT4 with unnamed partners; LightShift chemiluminescent EMSA kit (Thermo 20148) per manufacturer; pH and temperature not stated; protein in an extract; label: 5' biotin on both strands

“GGGAATTACCTGCGTTTTCACTGACATGCATCTCTCTTACCAGTCTGACCCAGATGGGG (double strand) [TRIP13 probe]”: binds.
